Experimental findings from article PMC7819943, “Rice protein-binding microarrays: a tool to detect cis-acting elements near promoter regions in rice” are described below.

Protein sequences, listed by entry. Tags and fused reporters are not part of them.
UniProt Q0JBA9, entry or part of it: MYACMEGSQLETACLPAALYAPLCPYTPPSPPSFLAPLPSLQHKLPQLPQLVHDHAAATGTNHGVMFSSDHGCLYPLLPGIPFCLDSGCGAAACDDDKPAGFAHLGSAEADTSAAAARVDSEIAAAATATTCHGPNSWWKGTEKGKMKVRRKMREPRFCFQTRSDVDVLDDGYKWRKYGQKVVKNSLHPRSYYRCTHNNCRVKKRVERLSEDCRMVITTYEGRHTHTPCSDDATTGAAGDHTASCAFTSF

This is one part of the list.

The assay deals with OsWRKY34 (Oryza sativa, UniProt Q0JBA9 1-250). In words: protein-binding microarray (RPBM); PBS, 2% BSA, 51.3 ng/ul salmon testes DNA, 50 uM zinc acetate, 200 nM TF, 25 C, 1 h; high values mean tight binding. As to conditions: protein: recombinant; tags: N-terminal polyhistidine and DsRed monomer fusion (pET32a); label: CyDye5-dUTP incorporated in the synthesized complementary strand; 3' TTTTT single-stranded linker to array surface; dsDNA, one strand shown. An outline of the steps: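 Transcription factors, each fused N-terminally to a polyhistidine tag and DsRed, were expressed in E. coli BL21-CodonPlus and purified on Ni–NTA. A custom Agilent array was made double-stranded by primer extension with Cy5-dUTP and blocked with 2% BSA. It was incubated with 200 nM protein in PBS, 2% BSA, salmon testes DNA and 50 µM zinc acetate at 25 °C for 1 h, then washed. The binding signal is per-feature fluorescence intensity (arbitrary units) read on an Axon 4000B scanner.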
For “CACCAAACATATTTTCGCGCCCAATTGTCGTTTCCGCACGCGGAGTCACCTAGTGCAG”, the binding signal is 12000 fluorescence intensity (a.u.).

In the case of “CATCCACAACTTCTTTGCCTGCCTGCTGTTCCTTTTAGTTCGGAGTCACCTAGTGCAG”, the binding signal was 9460 fluorescence intensity (a.u.). Next, “AAAGCCCACCATCTTAATTGGCCTCTCACTCCTTTGCTCCCGGAGTCACCTAGTGCAG”: 9010 fluorescence intensity (a.u.); “GCGTTTGGTGATCCATGCTATAGCTTACACTGCTCTATGACGGAGTCACCTAGTGCAG”: 8100 fluorescence intensity (a.u.). In the case of “GGTAGCTGCCGTGCTGGGCGATCGGCGTTTGCGTTCGCTCCGGAGTCACCTAGTGCAG”, the binding signal was 8430 fluorescence intensity (a.u.). The result for “AAAATTATTCATGGGTTTTCCCTTTTCTTGCGGTTTTAGACGGAGTCACCTAGTGCAG” reads 9070 fluorescence intensity (a.u.). Consider “ATGCTGAAGGCCTTGGTAGGAATAAGTCTATATTGCTTCCCGGAGTCACCTAGTGCAG”, for which the binding signal was 11000 fluorescence intensity (a.u.).

“TCGTCGTTGGTGATTTTGCAAAAACACCCTTCATTTACTTCGGAGTCACCTAGTGCAG”: the binding signal was 8890 fluorescence intensity (a.u.). Next, “GCATTTCATGGGTTCGTAGTTCGTTCGTTGTTTAATTTCCCGGAGTCACCTAGTGCAG”: 8360 fluorescence intensity (a.u.); “AACTTTCGTACACACAAACTTTTAACTTTTTCATCACATCCGGAGTCACCTAGTGCAG”: 8230 fluorescence intensity (a.u.). The result for “CATTGTATTCCTCAGCGTTCATCCTAGTCTTCAAAATCCCCGGAGTCACCTAGTGCAG” reads 8480 fluorescence intensity (a.u.); that for “AGCAAGGTCGTTGTTTTGGTTGATGGCTAAGTTCACCACTCGGAGTCACCTAGTGCAG”, 10200 fluorescence intensity (a.u.); that for “GTGTGGCATGGTTCAAATTCTCCCTTTTTTTTTTTTCTCTCGGAGTCACCTAGTGCAG”, 10800 fluorescence intensity (a.u.). For “ACACGAACTCGGATTGTTAATAATCTTTTACTACTCCTATCGGAGTCACCTAGTGCAG”, the binding signal was 8090 fluorescence intensity (a.u.). The result for “GCTTTTTTTTTTTCTTTCTTTCTTTTTCCCCTTCGGCTTCCGGAGTCACCTAGTGCAG” reads 12500 fluorescence intensity (a.u.); that for “ACCATTAACAAATCAATCCGAGCATTTTCTTTCTTTTGATCGGAGTCACCTAGTGCAG”, 8060 fluorescence intensity (a.u.).

As to “AATAGGGAAGCCCCACGTGTGTTAATTGTCATCGATTTCCCGGAGTCACCTAGTGCAG”, the binding signal was 9660 fluorescence intensity (a.u.). “ACTCTCCCTTTCCCACGTCCTTACCCGCACGAATCGCGAACGGAGTCACCTAGTGCAG”: the binding signal was 9530 fluorescence intensity (a.u.).

As for “TGAATTTTTTTTCGAAACCGAACTCTTCCATCAATTCCTTCGGAGTCACCTAGTGCAG”, the binding signal is 9450 fluorescence intensity (a.u.).

In the case of “ATGCCAGGATTTCAGTCCAGTCTTGTTCGGTTAATACCTACGGAGTCACCTAGTGCAG”, the binding signal was 8450 fluorescence intensity (a.u.). The result for “ACTCACTCTCACTCACTCGGACTCCTCACCCGCTAGCTACCGGAGTCACCTAGTGCAG” reads 11600 fluorescence intensity (a.u.); that for “GTGTATGATGCCGTTGACTTTTTATCCAACGTTTGACCATCGGAGTCACCTAGTGCAG”, 38800 fluorescence intensity (a.u.); that for “AATCTCCGTGGCGAGGGTGGGGTCGGAGGTGGTCATGTCGCGGAGTCACCTAGTGCAG”, 9290 fluorescence intensity (a.u.).

Take “TAGTTTGCTGCAACATTAGCATCATATTTCAGTTTGTTGTCGGAGTCACCTAGTGCAG”: the binding signal was 8340 fluorescence intensity (a.u.). Next, “GTTGACTTTTTTTCACATGTTTGACCATTCATCTTATTCACGGAGTCACCTAGTGCAG”: 13400 fluorescence intensity (a.u.); “AATTTTCAGTTGAAAGAAGGATTGGGGTGCGTTTGGTTCTCGGAGTCACCTAGTGCAG”: 8360 fluorescence intensity (a.u.). The result for “TGTATGCATGCTCTGTGCTTTGATATTTTACGTTTTCACACGGAGTCACCTAGTGCAG” reads 8730 fluorescence intensity (a.u.); that for “GGGACTAGGGTTACGACGGCTGTGGGGTGGCTTCACTGATCGGAGTCACCTAGTGCAG”, 8460 fluorescence intensity (a.u.); that for “CTCATTTTTTTAATGTGATGGTTCTGTATTATCTGATCAACGGAGTCACCTAGTGCAG”, 8060 fluorescence intensity (a.u.).

Regarding “AATCCAACGCCCGGTCCCGCTGCATGTTCCTGCGCTCAGTCGGAGTCACCTAGTGCAG”, the binding signal was 8850 fluorescence intensity (a.u.). The result for “TGTCTTTATGATGTTTGGTTGATTTTGTTTCATCCGATTTCGGAGTCACCTAGTGCAG” reads 9010 fluorescence intensity (a.u.); that for “CACGCACCAAACAACAGGGTGGGTTCAGGATTTGAGATAGCGGAGTCACCTAGTGCAG”, 8060 fluorescence intensity (a.u.).

As to “GAGGAAAGTCGCCTCCTTCGTGTCCCACTTTGTCCATGTACGGAGTCACCTAGTGCAG”, the binding signal was 8340 fluorescence intensity (a.u.). The result for “CCATTAGCCCACTAGATTTTTTGCCACCCACGGCCCAGCCCGGAGTCACCTAGTGCAG” reads 9060 fluorescence intensity (a.u.); that for “ATTCTATTGTTAACGCCGTTGATTTTTAATGTAAGTTTAACGGAGTCACCTAGTGCAG”, 10500 fluorescence intensity (a.u.); that for “CTCCCATCCTTGCTGAGTTCTTGTGCTGCTTCTTCCACAACGGAGTCACCTAGTGCAG”, 11100 fluorescence intensity (a.u.). The result for “ATTCCTTCCATTGGCTTGCTGCTTCCTGGTACATCCTTTTCGGAGTCACCTAGTGCAG” reads 11300 fluorescence intensity (a.u.); that for “ATCAGGTCAGGCTTCGATCCCCATTCGCTCGTGCTCTCGTCGGAGTCACCTAGTGCAG”, 8590 fluorescence intensity (a.u.).

With “AGTTGGCTATAGATCTATAGACCGCCTTTTCGCCTGTCTGCGGAGTCACCTAGTGCAG”, the binding signal was 8930 fluorescence intensity (a.u.). Next, “TCCAAATCTCCATCAGCGCTTGCCCAAGGACATCCTCTCACGGAGTCACCTAGTGCAG”: 9210 fluorescence intensity (a.u.); “GTCTACCTCTGCTGCTTATCTGAAATTTCGGAGTCTGAACCGGAGTCACCTAGTGCAG”: 10400 fluorescence intensity (a.u.). Next, “CCCTCCGATCACCGTGCAGCGCAGAATGCCAGAATCTCTCCGGAGTCACCTAGTGCAG”: 8270 fluorescence intensity (a.u.).
